Source: PubChem BioAssay AID256 (DTP/NCI, 2004)
The list is a part of this screen's results and no random one: it is rich in T/C values a quarter to a half above the control, in often repeated tests (any T/C) and in doses without a T/C. Other doses and runs of a compound stand elsewhere. T/C: endpoint of the treated group in % of that of the vehicle group. Some doses have a count of surviving animals in place of a T/C: the source holds a T/C of zero for them, seemingly a mark for toxic or unscored doses. Some doses without a T/C left all or most animals alive at the check, yet need not have been tolerated: survival well below the control is almost never listed, so the zero probably covers shortened survival too. Survivors were counted at the toxicity check, usually on the fifth day, unless a day is given; later deaths do not show. Schedule codes are those of the source, taken here to give the interval after Q, in days (D) or hours (H), and the number of doses after X. Some entries hold several experiments; the values are given in rising order. For survival time, this PubChem deposit counts one and a half times the control or more as active, and values a quarter to a half above the control carry no call in these data; other NCI protocols may use other cut-offs. Some T/C values are followed by the survivors on the day toxicity was checked, most often the fifth; where none is given, no animal had died by that day.

Test system: CD2F1 mice, L1210 leukemia ip, survival T/C
Assay: NCI In Vivo Anticancer Drug Screen. Data for tumor model L1210 Leukemia (intraperitoneal) in CD2F1 (CDF1) mice
Details: higher T/C = longer survival
Method in brief: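 Mice carrying a transplanted tumor received test compound or vehicle alone. The value is the measurement in the treated group divided by that in the vehicle-treated control group.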

[1] = T/C endpoint: mean survival time, dose: 100.0 mg/kg/injection, schedule: Q04DX003 (ip), vehicle: saline with Tween-80
[2] = T/C endpoint: mean survival time, dose: 200.0 mg/kg/injection, schedule: Q04DX003 (ip), vehicle: saline with Tween-80
[3] = T/C endpoint: mean survival time, dose: 400.0 mg/kg/injection, schedule: Q04DX003 (ip), vehicle: saline with Tween-80
[4] = T/C endpoint: mean survival time, dose: 200.0 mg/kg/injection, schedule: Q04DX002 (ip), vehicle: saline with Tween-80
[5] = T/C endpoint: mean survival time, dose: 3.13 mg/kg/injection, schedule: Q01DX009 (ip), vehicle: Klucel (hydroxypropylcellulose) (HPC)
[6] = T/C endpoint: mean survival time, dose: 200.0 mg/kg/injection, schedule: Q01DX001 (ip), vehicle: saline with Tween-80
[7] = T/C endpoint: mean survival time, dose: 400.0 mg/kg/injection, schedule: Q01DX001 (ip), vehicle: saline with Tween-80
[8] = T/C endpoint: mean survival time, dose: 200.0 mg/kg/injection, schedule: Q01DX009 (ip), vehicle: saline
[9] = T/C endpoint: mean survival time, dose: 200.0 mg/kg/injection, schedule: Q01DX009 (ip), vehicle: saline with Tween-80
[10] = T/C endpoint: mean survival time, dose: 400.0 mg/kg/injection, schedule: Q04DX002 (ip), vehicle: saline with Tween-80

Cc1cc(N(C)C)c(C(C)C)cc1O (tested in a mixture with another compound)
survivor count (T/C endpoint: mean survival time, dose: 0.5 mg/kg/injection, schedule: Q01DX001 (ip), vehicle: saline): 0 of 6
survivor count (T/C endpoint: mean survival time, dose: 1.0 mg/kg/injection, schedule: Q01DX001 (ip), vehicle: saline): 0 of 6
survivor count (T/C endpoint: mean survival time, dose: 2.0 mg/kg/injection, schedule: Q01DX001 (ip), vehicle: saline): 0 of 6
survivor count (T/C endpoint: mean survival time, dose: 3.75 mg/kg/injection, schedule: Q01DX001 (ip), vehicle: saline): 0 of 6
survivor count (T/C endpoint: mean survival time, dose: 7.5 mg/kg/injection, schedule: Q01DX001 (ip), vehicle: saline): 0 of 6
survivor count (T/C endpoint: mean survival time, dose: 15.0 mg/kg/injection, schedule: Q01DX001 (ip), vehicle: saline): 0 of 6
survivor count (T/C endpoint: mean survival time, dose: 18.8 mg/kg/injection, schedule: Q01DX001 (ip), vehicle: saline): 0 of 6
survivor count (T/C endpoint: mean survival time, dose: 37.5 mg/kg/injection, schedule: Q01DX001 (ip), vehicle: saline): 0 of 6
survivor count (T/C endpoint: mean survival time, dose: 75.0 mg/kg/injection, schedule: Q01DX001 (ip), vehicle: saline): 0 of 6
survivor count (T/C endpoint: mean survival time, dose: 250.0 micrograms/kg/injection, schedule: Q01DX001 (ip), vehicle: saline): 0 of 6

C=COCCN1CCN(CCCN2c3ccccc3Sc3ccc(C(F)(F)F)cc32)CC1
survivor count (T/C endpoint: mean survival time, dose: 50.0 mg/kg/injection, schedule: Q04DX003 (ip), vehicle: saline with Tween-80): 3 of 3
survivor count [1]: 2 of 6
survivor count [2]: 0 of 6
survivor count [3]: 0 of 6

Cc1oc2ccc(NS(=O)(=O)c3ccccc3)cc2c1C(=O)O
survivor count [2]: 3 of 6
survivor count [3]: 0 of 6

CC(C)C1(C(=O)NNC(=O)CCCc2ccc(N(CCCl)CCCl)cc2)OC2(O)CCCCCN2C1=O (stereo not given)
T/C (T/C endpoint: mean survival time, dose: 50.0 mg/kg/injection, schedule: Q04DX003 (ip), vehicle: DMSO): 127 % of control
survivor count (T/C endpoint: mean survival time, dose: 100.0 mg/kg/injection, schedule: Q04DX003 (ip), vehicle: DMSO): 6 of 6

CC1(c2ccccc2)NC(=O)NC1=O (stereo not given)
survivor count (T/C endpoint: mean survival time, dose: 400.0 mg/kg/injection, schedule: Q01DX009 (ip), vehicle: other): 6 of 6

O=c1cc(CCl)oc(Br)c1O
survivor count [4]: 1 of 3

CCN1CCS(=O)(=O)C1=O
survivor count (T/C endpoint: mean survival time, dose: 300.0 mg/kg/injection, schedule: Q01DX001 (ip), vehicle: other): 0 of 6

COc1ccc2c(c1O)CNCC2c1ccc(O)c(C)c1 (stereo not given)
survivor count (T/C endpoint: mean survival time, dose: 150.0 mg/kg/injection, schedule: Q01DX001 (ip), vehicle: saline): 3 of 6
survivor count (T/C endpoint: mean survival time, dose: 300.0 mg/kg/injection, schedule: Q01DX001 (ip), vehicle: saline): 1 of 6

S=P(N1CC1)(N1CC1)N1CC1.[Cl-].[Cl-].[NH2-].[NH2-].[Pt+4]
T/C [5]: 142 % of control
survivor count [5]: 6 of 6
T/C (T/C endpoint: mean survival time, dose: 6.25 mg/kg/injection, schedule: Q01DX009 (ip), vehicle: Klucel (hydroxypropylcellulose) (HPC)): 132 [5 of 6 alive] and 143 % of control

O=C(O)C/[N+]([O-])=N\O
survivor count (T/C endpoint: mean survival time, dose: 800.0 mg/kg/injection, schedule: Q04DX003 (ip), vehicle: saline): 0 of 6

NC(N)=N/N=C/c1ccc(-c2ccccc2)cc1
survivor count (T/C endpoint: mean survival time, dose: 100.0 mg/kg/injection, schedule: Q01DX001 (ip), vehicle: saline with Tween-80): 0 of 6
survivor count [6]: 0 of 6
survivor count [7]: 0 of 6

COc1cc(C=Nc2cccc(F)c2)ccc1N(CCCl)CCCl
survivor count (T/C endpoint: mean survival time, dose: 27.0 mg/kg/injection, schedule: Q01DX015 (ip), vehicle: saline): 5 of 6
survivor count (T/C endpoint: mean survival time, dose: 45.0 mg/kg/injection, schedule: Q01DX015 (ip), vehicle: saline): 1 of 6
survivor count (T/C endpoint: mean survival time, dose: 75.0 mg/kg/injection, schedule: Q01DX015 (ip), vehicle: saline): 0 of 6
survivor count (T/C endpoint: mean survival time, dose: 100.0 mg/kg/injection, schedule: Q01DX001 (ip), vehicle: other): 3 of 6

COCCCNc1ccc([N+](=O)[O-])cn1
survivor count (T/C endpoint: mean survival time, dose: 400.0 mg/kg/injection, schedule: Q01DX001 (ip), vehicle: carboxymethylcellulose (CMC)): 2 of 4

CC(=O)NC(CSC(c1ccccc1)(c1ccccc1)c1ccccc1)C(=O)O (stereo not given)
survivor count [8]: 1 of 6
survivor count (T/C endpoint: mean survival time, dose: 400.0 mg/kg/injection, schedule: Q01DX009 (ip), vehicle: saline): 0 of 6

CCCCCCCCCCCCNC1=CC(=O)c2nccnc2C1=O
survivor count [9]: 1 of 3

N=c1sc2ccccc2n1CC(=O)O
survivor count [6]: 2 of 6
survivor count [7]: 3 of 6

O=c1[nH]cc(Br)c2sccc12
survivor count [9]: 5 of 6

O/N=C/c1cc[n+](CCC[n+]2ccc(/C=N/O)cc2)cc1
survivor count [1]: 0 of 6
survivor count [2]: 0 of 6
survivor count [3]: 0 of 6

CN(C)c1nc(-c2ccncc2)nc(N(C)C)n1
survivor count [4]: 0 of 3
survivor count [10]: 0 of 3

CC(C)(C)c1cc(O)c(O)c(C(C)(C)C)c1
survivor count (T/C endpoint: mean survival time, dose: 400.0 mg/kg/injection, schedule: Q04DX003 (ip), vehicle: other): 1 of 6

Cc1nc2c(ncn2C2OC3COP(=O)(O)OC3C2O)c2nccn12 (stereo not given)
survivor count (T/C endpoint: mean survival time, dose: 200.0 mg/kg/injection, schedule: Q01DX005 (ip), vehicle: water): 0 of 5

S=C(N/N=C1/CCCC/C1=N/NC(=S)N1CCOCC1)N1CCOCC1
survivor count (T/C endpoint: median survival time, dose: 25.0 mg/kg/injection, schedule: Q01DX009 (ip), vehicle: saline with Tween-80): 4 of 6

ClC(c1ccccc1)C(Cl)c1ccccc1 (stereo not given)
survivor count (T/C endpoint: mean survival time, dose: 25.0 mg/kg/injection, schedule: Q01DX009 (ip), vehicle: saline with Tween-80): 3 of 3
survivor count (T/C endpoint: mean survival time, dose: 50.0 mg/kg/injection, schedule: Q01DX009 (ip), vehicle: saline with Tween-80): 2 of 3

Brc1ccc(N=C=C(c2ccccc2)c2ccccc2)cc1
survivor count [3]: 0 of 6

CC1(C)N=C(N)N=C(N)N1c1ccc(OCC(=O)N2CCOCC2)c(Cl)c1
survivor count [8]: 1 of 6

CC(=O)c1ccccc1[N+](=O)[O-]
survivor count (T/C endpoint: mean survival time, dose: 400.0 mg/kg/injection, schedule: Q01DX009 (ip), vehicle: saline with Tween-80): 5 of 6

N\C([S-])=N/N=C\C(=N/N=C(\N)[S-])C(O)C(O)C(O)CO.[Fe+2] (stereo not given)
survivor count (T/C endpoint: mean survival time, dose: 400.0 mg/kg/injection, schedule: Q01DX009 (ip), vehicle: saline sonified): 0 of 6

N=C(N)SCc1cccc([N+](=O)[O-])c1
survivor count [4]: 0 of 3
survivor count [10]: 0 of 3

O=C1c2c(O)cccc2-c2nn(CCNCCO)c3ccc(NCCNCCO)c1c23
survivor count (T/C endpoint: median survival time, dose: 22.0 mg/kg/injection, schedule: Q01DX009 (ip), vehicle: water): 4 of 6
survivor count (T/C endpoint: median survival time, dose: 44.0 mg/kg/injection, schedule: Q01DX009 (ip), vehicle: water): 2 of 6

CCC1CCC(NC(=O)NC)CC1 (stereo not given)
survivor count [3]: 4 of 6

Cc1cnccc1Br
survivor count (T/C endpoint: mean survival time, dose: 400.0 mg/kg/injection, schedule: Q01DX009 (ip), vehicle: water): 3 of 6

Nc1nc(N)c2nc(CNc3ccc(C(=O)NC(CCC(=O)O)C(=O)O)cc3)ccc2n1 (stereo not given)
survivor count (T/C endpoint: mean survival time, dose: 0.5 mg/kg/injection, schedule: Q01DX005 (ip), vehicle: sodium bicarbonate): 5 of 6
survivor count (T/C endpoint: mean survival time, dose: 1.0 mg/kg/injection, schedule: Q01DX005 (ip), vehicle: sodium bicarbonate): 3 of 6
survivor count (T/C endpoint: mean survival time, dose: 2.0 mg/kg/injection, schedule: Q01DX005 (ip), vehicle: sodium bicarbonate): 4 of 6
survivor count (T/C endpoint: mean survival time, dose: 4.0 mg/kg/injection, schedule: Q01DX005 (ip), vehicle: sodium bicarbonate): 3 of 6
survivor count (T/C endpoint: mean survival time, dose: 8.0 mg/kg/injection, schedule: Q01DX005 (ip), vehicle: sodium bicarbonate): 3 of 6
survivor count (T/C endpoint: mean survival time, dose: 16.0 mg/kg/injection, schedule: Q01DX005 (ip), vehicle: sodium bicarbonate): 2 of 6
T/C (T/C endpoint: mean survival time, dose: 125.0 micrograms/kg/injection, schedule: Q01DX005 (ip), vehicle: sodium bicarbonate): 134 % of control
T/C (T/C endpoint: mean survival time, dose: 250.0 micrograms/kg/injection, schedule: Q01DX005 (ip), vehicle: sodium bicarbonate): 138 and 140 % of control
survivor count (T/C endpoint: mean survival time, dose: 500.0 micrograms/kg/injection, schedule: Q01DX005 (ip), vehicle: sodium bicarbonate): 3 of 6 and 6 of 6
